Measurements reported in PubChem BioAssay AID1347075 (National Center for Advancing Translational Sciences (NCATS), 2019).
Several values for one entry are separate records, joined by “and”; a condition that tells them apart may be missing. Equal entries are not always repeated. The campaign covered roughly 400,000 compounds. About 5,500 (1.4%) were called active. The inconclusive results got no clear call from the source; some entries with a clear call stand among them for comparison. Calls come from the whole dose curve; as a rule, active = well fitted cell-killing curve with a large enough effect; inconclusive = small, poorly fitted or top-dose-only effect, or effect the other way; inactive = flat fitted curve, though single readings scatter. A potency beside an inconclusive call is a rough fit, not a confirmed value.

Assay: qHTS assay for MDR1-selective chemotherapeutics: Primary screen using the parental adenocarcinoma cell KB-3-1; note: nearly all actives have a fitted effect of over 60% in size
Conditions: KB-3-1 viability, CellTiter-Glo ATP luminescence, 72 h; activity change, negative = cytotoxic: at 46.1 µM (top of the series)
Procedure, shortened: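 KB-3-1 cells, DMEM (no phenol red) + 10% FBS; compound by pin transfer, 72 h, 37 °C. Readout: CellTiter-Glo luminescence after 10 min. Data normalized, curve-fitted.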
% is set by controls: 0 for no effect and ±100 for the full control effect; potency is the fitted concentration of half-maximal effect.

Row | Compound | Potency | activity change, negative = cytotoxic
1 | O=C(N/N=C(\Cc1ncc[nH]1)c1ccccc1)c1cccnc1 | inconclusive: 16.4 µM [cytotoxic, partial curve, poor fit] | 
2 | O=C(CN1CCN(S(=O)(=O)c2ccccc2)CC1)Nc1ccc(Cl)c([N+](=O)[O-])c1 | inconclusive: 20.6 µM [cytotoxic, single point] | 
3 | CCOC(=O)C1=C(CC)Nc2ccccc2N/C1=N\S(=O)(=O)c1ccc2ccccc2c1 | inactive | 
4 | Cc1cccn2c(=O)c3cc(C(=O)NC4CCCC4)c(=N)n(CC4CCCO4)c3nc12 (centres undefined) | inconclusive: 29.1 µM [cytotoxic, single point] | 
5 | Cc1nc(NC(=O)c2ccccc2)sc1-c1cc(C(=O)N2CCOCC2)nn1Cc1ccccc1 | inactive | 
6 | N#CCC(=O)N/N=C/c1ccc(OS(=O)(=O)c2ccccc2)cc1 | inactive | 
7 | CN(CC(=O)Nc1cccc(F)c1)C(=O)c1ccc(C2SCCS2)cc1 | inconclusive: 29.1 µM [cytotoxic, single point] | 
8 | Cc1cc(NCc2ccccc2)nc2ccccc12 | inactive | 
9 | CCOC(=O)c1nn(-c2ccccc2)c2nc(Nc3ccccc3)cc(=O)n12 | inconclusive: 29.1 µM [rising, single point] | 
10 | COc1ccc(CNC(=O)C(=O)NCC2OCCN2S(=O)(=O)c2ccccc2)cc1 (centres undefined) | inactive | 
11 | O=C(Nc1nc2cc3c(cc2s1)OCCO3)c1ccc([N+](=O)[O-])o1 | active: 3.26 µM | 
12 | COc1ccc(-c2cn3c(C)c(C(=O)N4CCc5ccccc5C4)sc3n2)cc1 | inconclusive: 29.1 µM [cytotoxic, single point] | 
13 | O=C(NCCc1ccccc1)C1Cc2c(-c3ccc4c(c3)OCO4)ccnc2O1 (centres undefined) | inconclusive: 29.1 µM [cytotoxic, single point] | 
14 | CCC[n+]1c(/C=C/c2c(OC)cc(OC)cc2OC)ccc2ccccc21 | active: 1.3 µM | 
15 | Cn1cnc([N+](=O)[O-])c1S(=O)(=O)Oc1ccc(Cl)cc1 | inconclusive: 23.1 µM [cytotoxic, single point] | 
16 | Cc1cc(C)c(C)c(S(=O)(=O)N2CCN(C(=O)c3ccccc3OCc3c(C)noc3C)CC2)c1C | inconclusive: 25.9 µM [cytotoxic, single point] | 
17 | CCCCCCCCC/C(=N\O)c1ccccn1 | inconclusive: 20.6 µM [cytotoxic, single point] | 
18 | O=C(N/N=C/c1ccccc1Cl)c1n[nH]c2c1CCCC2 | inconclusive: 16.4 µM [cytotoxic, single point] | 
19 | Fc1ccc(N=C2NN=C(c3cc(F)ccc3F)CS2)cc1 | inconclusive: 29.1 µM [cytotoxic, single point] | 
20 | COc1cccc(Cn2c(SCc3ccc(C(=O)N4CCCCC4)cc3)nc3ccncc32)c1 | inconclusive: 9.2 µM [cytotoxic, partial curve, poor fit] | 
21 | CCOC(=O)C1CCCN(C(=O)c2ccc3c(c2)sc2nc(-c4ccc(C)cc4C)cn23)C1 (centres undefined) | inactive | 
22 | O=C(CCCOc1ccccc1)NCCc1nc2ccccc2[nH]1 | inactive | 
23 | CCOC(=O)CSc1nc2ccc(Nc3nc(N4CCOCC4)nc(N4CCOCC4)n3)cc2s1 | inactive | 

Row | Compound | Potency | activity change, negative = cytotoxic
24 | CCCN1C/C(=C/c2ccc3c(c2)OCO3)C(=O)/C(=C/c2ccc3c(c2)OCO3)C1 | active: 23.1 µM | 
25 | COc1ccc(CNC(=O)C2CCN(S(=O)(=O)c3ccc4c(c3)CCCN4C(C)=O)CC2)cc1 | inactive | 
26 | CCN(Cc1ccccc1)C(c1cc2cc(C)ccc2[nH]c1=O)c1nnnn1CCOC (centres undefined) | inconclusive: 29.1 µM [cytotoxic, single point] | 
27 | COc1cc2c(cc1NC(=O)CCCN1C(=O)CCC1=O)oc1ccccc12 | inactive | 
28 | Cc1nc2ccccc2nc1OCC(=O)NCc1ccc2c(c1)OCO2 | inconclusive: 29.1 µM [cytotoxic, single point] | 
29 | O=C1NCCCC1(c1ccccc1)c1ccccc1 | inactive | 
30 | COc1ccc(/C=N/NC(=O)c2ccc3ccccc3c2)cc1OS(=O)(=O)c1ccc(NC(C)=O)cc1 | inconclusive: 5.17 µM [cytotoxic, partial curve, poor fit] | 
31 | CCC(CC)C(=O)Nc1ccc(C)cc1O |  | inconclusive: 3.45%
32 | CCOc1ccc(-c2nn(-c3ccccc3)cc2/C=C(\C#N)S(=O)(=O)c2ccccc2)cc1C | inconclusive: 29.1 µM [cytotoxic, single point] | 
33 | C#CCN(C[C@H]1[C@H](OC(=O)NCc2ccccc2)[C@H](OC(=O)NCc2ccccc2)C[C@H]2C(=O)N(c3ccccc3)C(=O)[C@@H]12)S(=O)(=O)c1ccc(C)cc1 | inactive | 
34 | O=[N+]([O-])c1cccc(-c2ccc(C(=S)N3CCOCC3)o2)c1 | inconclusive: 29.1 µM [cytotoxic, single point] | 
35 | CC(C)NC(=S)N1CCC(Cc2ccccc2)CC1 | inconclusive: 16.4 µM [cytotoxic, single point] | 
36 | CC(=O)NC(c1cccc([N+](=O)[O-])c1)c1ccc2cccnc2c1O (centres undefined) | active: 3.66 µM | 
37 | O=C(Nc1cccc(Cl)c1)N1CCSc2cc(Cl)ccc21 | inactive | 
38 | O=C(Nc1ccc([N+](=O)[O-])cc1)C(=O)Nc1cccc(C(=O)O)c1 | inconclusive: 11.6 µM [cytotoxic, partial curve] | 
39 | COc1ccc(-c2nc(C#N)c(NC(C)c3ccccc3)o2)cc1OC (centres undefined) | inactive | 
40 | COc1ccccc1C(=O)NC(=O)COC(=O)CNC(=O)c1ccc(Cl)cc1Cl | inactive | 
41 | Cc1ccc(-c2cc(C(=O)N3CCN(c4ccc(O)cc4)CC3)c3ccccc3n2)cc1 | inconclusive: 20.6 µM [cytotoxic, partial curve] | 
42 | COc1ccc2c(/C=C/c3cc[n+](C)cc3)c[nH]c2c1 | active: 1.84 µM | 
43 | Cc1ccc(S(=O)(=O)Nc2ccccc2CNc2ccc(Br)cn2)cc1 | active: 23.1 µM | 
44 | CC[C@@H](C)C(NC(=O)OC(C)(C)C)c1cn([C@@H](Cc2cc3ccccc3[nH]2)C(=O)N2CCN(C(=O)OC(C)(C)C)CC2)nn1 (some centres undefined) | inconclusive: 29.1 µM [cytotoxic, single point] | 
45 | Cc1ccc(Nc2nnc(SCC(=O)Nc3ccccc3[N+](=O)[O-])s2)cc1 | inactive | 
46 | COc1cc(NC(=O)C2CC2)c(OC)cc1NC(=O)CCC(=O)NC1CCN(Cc2ccccc2)CC1 | inconclusive: 18.4 µM [cytotoxic, single point] | 

Row | Compound | Potency | activity change, negative = cytotoxic
47 | COC(=O)c1ccccc1COc1cccn2c(N(C)Cc3cccs3)c(C)nc12 | inconclusive: 29.1 µM [cytotoxic, single point] | 
48 | CCOC(=O)c1c(NC(=O)CSc2nc3ccc(C)cc3[nH]2)sc2c1CC(C)(C)NC2(C)C | inconclusive: 29.1 µM [cytotoxic, single point] | 
49 | CCOc1ccc(C(Nc2cccnc2)c2cc(Cl)c3cccnc3c2O)cc1 (centres undefined) | inconclusive: 29.1 µM [cytotoxic, single point] | 
50 | Cc1ccc(C(=O)c2oc3ccccc3c2NC(=O)c2cc(=O)c3cc(C)ccc3o2)cc1 | inconclusive: 18.4 µM [rising, single point] | 
51 | Cc1cc(C)c2nc(C(F)(F)F)c(C#N)c(N)c2c1 | inconclusive: 7.31 µM [rising, partial curve] | 
52 | COCCN1C(=O)c2ccccc2C1c1nnnn1Cc1ccccc1 (centres undefined) | inactive | 
53 | CSCCC(NC(=O)c1ccccc1Cl)C(=O)NCC(c1ccc(F)cc1)N1CCOCC1 (centres undefined) | inactive | 
54 | N#CC1CC(c2ccccc2)Nc2cc(Cl)ccc2N1 (centres undefined) | inconclusive: 20.6 µM [cytotoxic, single point] | 
55 | CCOC(=O)c1ccc(NC(=O)c2ncn3c2C(=O)NC[C@H]3C)cc1 | inconclusive: 23.1 µM [rising, single point] | 
56 | Cc1cccc(Cn2c(SCc3ccc(C(=O)NCc4ccccc4)cc3)nc3cccnc32)c1 | inconclusive: 29.1 µM [cytotoxic, single point] | 
57 | COc1ccc(CN([C@H](C)CO)S(=O)(=O)N(Cc2ccccc2)[C@H](CO)C(C)C)cc1 | inactive | 
58 | COc1ccc(CNC(=O)CCc2c(C)c3ccc(OC)c(C)c3oc2=O)cc1OC | inactive | 
59 | O=S1c2ccccc2Nc2ccccc21 | inactive | 
60 | O=S(=O)(c1ccc(F)c(F)c1)N1CCN(c2ncccn2)CC1 | inactive | 
61 | Cc1cc(S(=O)(=O)N2CCN(Cc3ccc4c(c3)OCO4)CC2)cc(C)c1N1CCCC1=O | inconclusive: 10.3 µM [cytotoxic, partial curve, poor fit] | 
62 | Cc1ccnc(NC(=O)CCCOc2cc(=O)n(C)c3ccccc23)c1 | active: 3.66 µM and inconclusive: 29.1 µM [cytotoxic, single point] | 
63 | CC(C)C(=O)Nc1nnc(SCC(=O)NCc2ccco2)s1 | inconclusive: 6.51 µM [rising, partial curve, poor fit] | 
64 | O=C(N/N=C\C=C\c1ccc2c(c1)OCO2)c1cccnc1 | inconclusive: 0.0517 µM [rising, full curve] | 
65 | CN(C)CC(O)c1ccc(C=Cc2ccc(Cl)cc2)cc1 (centres undefined) | inconclusive: 20.6 µM [cytotoxic, single point] | 
66 | Cc1ccc(N2C(=O)CS(=O)(=O)C23C(=O)N(Cc2ccccc2C)c2ccccc23)cc1Cl (centres undefined) | inactive | 
67 | O=C(NC(=S)Nn1cnnc1)c1ccc(F)cc1Cl | inactive | 
68 | C=C1C(=O)[C@]23C[C@H]1CC[C@H]2[C@]1(C)[C@@H](OC(C)=O)CC[C@@](C)(C(=O)O)[C@H]1C[C@@H]3O | inconclusive: 29.1 µM [cytotoxic, single point] | 
69 | Oc1ccc(/C=N/Nc2ncnc3c2ncn3Cc2ccccc2)cc1O | inconclusive: 29.1 µM [cytotoxic, single point] | 

Entries from the list above with a cyano group, in the order listed:
Row | Compound | Potency | activity change, negative = cytotoxic
6 | N#CCC(=O)N/N=C/c1ccc(OS(=O)(=O)c2ccccc2)cc1 | inactive | 
32 | CCOc1ccc(-c2nn(-c3ccccc3)cc2/C=C(\C#N)S(=O)(=O)c2ccccc2)cc1C | inconclusive: 29.1 µM [cytotoxic, single point] | 
39 | COc1ccc(-c2nc(C#N)c(NC(C)c3ccccc3)o2)cc1OC (centres undefined) | inactive | 
51 | Cc1cc(C)c2nc(C(F)(F)F)c(C#N)c(N)c2c1 | inconclusive: 7.31 µM [rising, partial curve] | 
54 | N#CC1CC(c2ccccc2)Nc2cc(Cl)ccc2N1 (centres undefined) | inconclusive: 20.6 µM [cytotoxic, single point] | 
